PubChem BioAssay AID652243 | Drosophila RNAi Screening Center – 2013

Aim: 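Fly regulators of androgen-dependent reporter output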 (primary screen)
System: Drosophila S2R+ cells
Reagents: long dsRNA against Drosophila genes
Duration: 72 h (48 h, then 24 h hormone)
Conditions: synthetic androgen R1881 at 10 nM for 24 h
Read-out: 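Per-well raw luminescence of the androgen-driven firefly reporter and of the Renilla control, two replicates each, without normalisation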
Reading the numbers: firefly reporter light: higher = more light from androgen-responsive reporter; Renilla control light: higher = more constitutive control signal (cell number, transfection)
Hit rule: 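Across duplicate plates, a knock-down whose log firefly/Renilla ratio shifted a set fold down or up from the GFP/LacZ control mean was a hit; the downward cut appears as both 1.5 and 3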
Meaning of the calls: active = hit: reporter lowered or raised; inactive = no hit
The deposit covers about 24,000 reagents; this is a random part of those with a known target gene and a result. In the full data, 246 (1%) are marked active. 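Plates not normalised; calls are printed but the firefly/Renilla ratio behind them is not deposited; fold cut for lowering reported inconsistently.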 Raw values are not corrected between plates. Unmarked entries are inactive. Names joined by + are all predicted targets of the reagent. Not given: the amount of reagent.

no.	predicted target	amplicon	firefly reporter light, replicate 1	firefly reporter light, replicate 2	Renilla control light, replicate 1	Renilla control light, replicate 2
1	CG12863 (GeneID 36623)	DRSC06203	1.27e5	1.90e5	2.64e6	2.64e6
2	CG7724 (GeneID 39918)	DRSC10905	52630	16992	3.13e5	2.48e5
3	CG13737 (GeneID 39531)	DRSC10064	2.07e5	2.12e5	3.02e6	2.39e6
4	vig2 (GeneID 43016)	DRSC14402	72738	59720	7.46e5	4.69e5
5	vig2 (GeneID 43016)	DRSC30012	3.92e5	4.10e5	9.74e5	1.13e6
6	CG13622 (GeneID 42923)	DRSC14624	1.39e5	1.84e5	2.03e6	2.06e6
7	CG13622 (GeneID 42923)	DRSC27082	9.38e5	6.14e5	7.51e5	5.45e5
8	Dbct (GeneID 32441)	DRSC19951	89699	89599	7.83e5	7.98e5
9	Dbct (GeneID 32441)	DRSC25764	5.47e5	7.14e5	4.74e5	5.03e5
10	Ilp5 (GeneID 2768992)	DRSC08998	2.54e5	1.92e5	2.89e5	2.02e5
11	CG15916 (GeneID 32549)	DRSC19740	5.97e5	6.76e5	4.44e6	3.17e6
12	CG14535 (GeneID 34073)	DRSC02393	1.56e5	1.59e5	1.75e6	1.73e6
13	CG43707 (GeneID 33601)	DRSC00280	1.11e5	1.66e5	1.28e6	1.07e6
14	CG43707 (GeneID 33601)	DRSC22869	3.32e5	5.17e5	8.16e5	1.04e6
15	CG43707 (GeneID 33601)	DRSC22912	2.01e5	4.23e5	1.03e6	2.23e6
16	CG43707 (GeneID 33601)	DRSC25146	7.01e5	6.61e5	8.65e5	7.02e5
17	Octbeta1R (GeneID 42652)	DRSC16134	2.36e5	3.20e5	2.93e6	4.04e6
18	Octbeta1R (GeneID 42652)	DRSC30030	5.49e5	4.89e5	1.32e6	1.65e6
19	CG6184 (GeneID 42345)	DRSC15986	2.33e5	3.13e5	2.91e6	2.96e6
20	CG13949 (GeneID 33266)	DRSC00367	5.00e5	5.77e5	1.48e6	1.85e6
21	CG13949 (GeneID 33266)	DRSC25702	8.20e5	8.73e5	1.05e6	9.37e5
22	CG5381 (GeneID 34389)	DRSC02852	2.20e5	2.53e5	1.13e6	1.53e6
23	5-HT2B (GeneID 41017)	DRSC16360	85442	81232	1.65e6	1.41e6
24	5-HT2B (GeneID 41017)	DRSC16362	1.29e5	1.30e5	2.12e6	2.14e6
25	5-HT2B (GeneID 41017)	DRSC25577	1.61e6	1.53e6	1.05e6	9.61e5
26	CG42557 + CG42558	DRSC13963	1.39e6	8.01e5	3.70e6	1.80e6
27	CG42557 + CG42558	DRSC16329	87224	44819	6.37e5	4.11e5
28	EbpIII (GeneID 49821)	DRSC04638	5.54e5	6.76e5	1.54e6	1.73e6
29	CG15145 (GeneID 35064)	DRSC02446	1.21e5	1.77e5	1.50e6	1.83e6
30	CG15145 (GeneID 35064)	DRSC26674	2.73e5	2.43e5	6.94e5	8.32e5
31	Cpr67Fa1 (GeneID 39223)	DRSC10932	2.87e5	2.54e5	3.52e6	2.84e6
32	Slbp (GeneID 43448)	DRSC16863	1.03e5 (active)	96916	2.19e6	2.35e6
33	CG14221 (GeneID 32961)	DRSC19578	47541	87149	1.78e5	1.53e5
34	dmt (GeneID 41180)	DRSC16932	1.03e5	1.63e5	1.99e6	1.95e6
35	olf186-M (GeneID 37039)	DRSC07657	86807	54129	1.22e6	1.22e6
36	trn (GeneID 39491)	DRSC11407	2.27e5	3.08e5	2.50e6	2.43e6
37	CG16736 (GeneID 41101)	DRSC15145	755	404		
38	CG9953 (GeneID 38763)	DRSC11106	1.12e5	86992	1.11e6	1.15e6
39	ana3 (GeneID 36341)	DRSC06289	2.29e5	1.64e5	1.18e6	8.78e5
40	ana3 (GeneID 36341)	DRSC28049	4.22e5	3.95e5	1.30e6	1.42e6
